These results are taken from publication PMC7819943, “Rice protein-binding microarrays: a tool to detect cis-acting elements near promoter regions in rice”.

The chains behind the UniProt entries cited, without tags or fusion partners.
UniProt Q0JBA9, entry or part of it: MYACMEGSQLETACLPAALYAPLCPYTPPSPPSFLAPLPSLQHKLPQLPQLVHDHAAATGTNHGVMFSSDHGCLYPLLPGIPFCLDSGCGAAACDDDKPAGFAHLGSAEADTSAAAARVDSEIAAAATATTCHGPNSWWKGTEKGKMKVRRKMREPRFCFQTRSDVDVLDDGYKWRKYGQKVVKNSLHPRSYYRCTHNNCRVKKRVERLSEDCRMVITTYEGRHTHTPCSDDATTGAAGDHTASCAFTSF

This is one part of the list.

This experiment addresses OsWRKY34 (Oryza sativa, UniProt Q0JBA9 1-250). Put plainly: protein-binding microarray (RPBM); PBS, 2% BSA, 51.3 ng/ul salmon testes DNA, 50 uM zinc acetate, 200 nM TF, 25 C, 1 h; high values mean tight binding. As to conditions: protein: recombinant; tags: N-terminal polyhistidine and DsRed monomer fusion (pET32a); label: CyDye5-dUTP incorporated in the synthesized complementary strand; 3' TTTTT single-stranded linker to array surface; dsDNA, one strand shown. The gist of the method:
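A custom Agilent array was converted to double-stranded form by primer extension with Cy5-dUTP and blocked with 2% BSA. Protein at 200 nM in PBS with 2% BSA, salmon testes DNA and 50 µM zinc acetate was applied for 1 h at 25 °C, followed by washing. The proteins were polyhistidine–DsRed N-terminal fusions of transcription factors, expressed in E. coli BL21-CodonPlus and Ni–NTA-purified. The binding signal is per-feature fluorescence intensity (arbitrary units) from an Axon 4000B scanner.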
With “TTTTTGCTTGTGTTGATGTGTTAAAGTATTAAGTGATTTTCGGAGTCACCTAGTGCAG”, the binding signal was 10400 fluorescence intensity (a.u.).

On to “TTATTTTTGTTTAATTACCATTATTAGCAATTAATTAACACGGAGTCACCTAGTGCAG”, for which the binding signal is 8260 fluorescence intensity (a.u.).

“CCATGTTCGGAACTATAAATTCTCACTTTTACTCGCATGTCGGAGTCACCTAGTGCAG”: the binding signal is 8880 fluorescence intensity (a.u.).

Take “CACCTCGCATCGTCGCCGTCACCGTCGCCGACGACCAGACCGGAGTCACCTAGTGCAG”: the binding signal was 8170 fluorescence intensity (a.u.).

As for “AGGCTGTTATTGGTTGAAGTTGGGTGATAGATTTGGAACTCGGAGTCACCTAGTGCAG”, the binding signal is 9060 fluorescence intensity (a.u.).

On to “CCCCTTCCGACATCTGGTCAAACTTTCGATGTGACACCCACGGAGTCACCTAGTGCAG”, for which the binding signal is 8260 fluorescence intensity (a.u.).

For “TTTGCTGGTATTTGGTCATCACAGGTTAACCACATCAAAACGGAGTCACCTAGTGCAG”, the binding signal is 8390 fluorescence intensity (a.u.).

On to “TTGGCTTCTTCAACTTACGTTACCCAATGCATTATATTTGCGGAGTCACCTAGTGCAG”, for which the binding signal was 8070 fluorescence intensity (a.u.).

As for “TTTTGGACGATGCAATTTCTGTTACTATGGTTGTGGGCCTCGGAGTCACCTAGTGCAG”, the binding signal is 8440 fluorescence intensity (a.u.).

For the sequence “CTCCTCGCCGACGACGGCTTTCCCCTCACGCTCTCCCGTACGGAGTCACCTAGTGCAG”, the binding signal is 8080 fluorescence intensity (a.u.).

Turning to “TTGTCTCCCATGCCTATGTCATCCATACAACGTTACTTCACGGAGTCACCTAGTGCAG”, the binding signal was 9210 fluorescence intensity (a.u.).

Consider “TCTTTGTGTTCTAGTGTTAGGTTGGTAGCCAAGAGGGGTTCGGAGTCACCTAGTGCAG”, for which the binding signal was 11500 fluorescence intensity (a.u.).

With “ACGGTCAGTGTTGCTGCAGAGTTTTTTTTCCGTTGGATTCCGGAGTCACCTAGTGCAG”, the binding signal was 10300 fluorescence intensity (a.u.).

For the sequence “TGACTGTATAAACTATTCATGTCTTTTGTTCATTAGCTTCCGGAGTCACCTAGTGCAG”, the binding signal was 8120 fluorescence intensity (a.u.).

On to “CGGCGGAGGAGGAGGTTTCTTGCTCGTTTCTTGGGTTGCGCGGAGTCACCTAGTGCAG”, for which the binding signal is 10800 fluorescence intensity (a.u.).

For the sequence “GTGCGCTCGCCTTATATATACCGTACCATGGCAAATCGTGCGGAGTCACCTAGTGCAG”, the binding signal is 8180 fluorescence intensity (a.u.).

For “AAGTGGTGTGTAAGTATGATGTGTATAAATTCGTATGAATCGGAGTCACCTAGTGCAG”, the binding signal is 9650 fluorescence intensity (a.u.).

Take “GCCCATATTTTAAAAATAATTTATACTCCTACTTTATATTCGGAGTCACCTAGTGCAG”: the binding signal is 9260 fluorescence intensity (a.u.).

For the sequence “CTTAGTATTTACCAACATTTTCTCTATTTGTACAGTTTTCCGGAGTCACCTAGTGCAG”, the binding signal was 10800 fluorescence intensity (a.u.).

Consider “TGTGAGTGAGTTTTGTTCTTTTTCGCGCGCACGCTTCCCGCGGAGTCACCTAGTGCAG”, for which the binding signal was 10500 fluorescence intensity (a.u.).

Take “GAGGAGGAACGTTGTGTTGATTTATGCTAGTGTGTTGTGTCGGAGTCACCTAGTGCAG”: the binding signal was 8650 fluorescence intensity (a.u.).

Consider “GGATGTTCACTTTTAACCGTATCAAATTTTAGTAGGTAACCGGAGTCACCTAGTGCAG”, for which the binding signal was 8190 fluorescence intensity (a.u.).

“CTGCTCTAACTGAAGTGCCAGGTGACTTGCTTGGTTGGTTCGGAGTCACCTAGTGCAG”: the binding signal was 18300 fluorescence intensity (a.u.).

Consider “ACCTGTATGTTCTTTTTTTGTACTAGTGATTCATTTTTTTCGGAGTCACCTAGTGCAG”, for which the binding signal was 9850 fluorescence intensity (a.u.).

With “ACGACTCCGCATCCGCTTCCGCCGCAGTCCGCCGCACCCGCGGAGTCACCTAGTGCAG”, the binding signal is 10100 fluorescence intensity (a.u.).

Take “CATGTCATTTGGCGTTAATTATACCTACCACACATGCAGCCGGAGTCACCTAGTGCAG”: the binding signal is 8820 fluorescence intensity (a.u.).

Regarding “CCGGCGCCACCACCACCGTCTCGCACTCGTAATCGTACGCCGGAGTCACCTAGTGCAG”, the binding signal was 11000 fluorescence intensity (a.u.).

Take “CCATTTCCCGTTCACACCCTCCGTTTTTCCATTACAAAGGCGGAGTCACCTAGTGCAG”: the binding signal is 8280 fluorescence intensity (a.u.).

For “CTGCACTGTTTGCCTCAGTTGGGTTGGTTTGGTTTGGTTGCGGAGTCACCTAGTGCAG”, the binding signal is 48200 fluorescence intensity (a.u.).

For “ACCGCCGCCGCACTCCACCGCGGCCTACCCTTGCCGGCGCCGGAGTCACCTAGTGCAG”, the binding signal was 10500 fluorescence intensity (a.u.).

In the case of “GTCTGCAATTGTTTTCTTTTGTCATGACCAGACAGCAAAACGGAGTCACCTAGTGCAG”, the binding signal is 8210 fluorescence intensity (a.u.).

On to “TTCCCTTTAATCGCGCGTCGCACCACCCGCTCCCCAACAACGGAGTCACCTAGTGCAG”, for which the binding signal was 8100 fluorescence intensity (a.u.).

“CCAGCCAAAGTTCTCTATCAGTGCCCTTAAGTTATAGCATCGGAGTCACCTAGTGCAG”: the binding signal is 9190 fluorescence intensity (a.u.).

Turning to “ATCTTTTTTGTTTGACTGATATATGGCTCCGCATATTATGCGGAGTCACCTAGTGCAG”, the binding signal is 8160 fluorescence intensity (a.u.).

Take “TCTATGCCCTTGTTTAGTCCTCAACTTTTTTTTTCAAACTCGGAGTCACCTAGTGCAG”: the binding signal was 8710 fluorescence intensity (a.u.).

Take “TGTATCATAATTACATACGACCACCTATACATTTGTCGACCGGAGTCACCTAGTGCAG”: the binding signal was 8830 fluorescence intensity (a.u.).

With “TCCACATCTAGATTTTTATTTTTTGCGCAGAGCCATGTATCGGAGTCACCTAGTGCAG”, the binding signal was 9080 fluorescence intensity (a.u.).

In the case of “TTTTGTTGTTGATCCTGACACGCCGTTGCTTTGCTTCAGGCGGAGTCACCTAGTGCAG”, the binding signal is 8250 fluorescence intensity (a.u.).

As for “CTCGCTCTCGCCCTCAGGTGCCCGTCGTTCGGATCCGCCACGGAGTCACCTAGTGCAG”, the binding signal is 8780 fluorescence intensity (a.u.).

For “TGCCATCCTGATCCAGTTTGATTTCTCCGTCGAGCAGCAACGGAGTCACCTAGTGCAG”, the binding signal was 8380 fluorescence intensity (a.u.).

On to “GCTGTTGACGTACATGTCGTCATATACGCATGTCCTCGTTCGGAGTCACCTAGTGCAG”, for which the binding signal is 11400 fluorescence intensity (a.u.).

Consider “CGTTTAAGATGTGAACATTATTTTGGGGTTTATGGCACTCCGGAGTCACCTAGTGCAG”, for which the binding signal is 8950 fluorescence intensity (a.u.).

On to “TGTTTTGCACCTCTAATAAAGCATTTTCTTAACTTTTCTTCGGAGTCACCTAGTGCAG”, for which the binding signal is 8120 fluorescence intensity (a.u.).

Turning to “CAATCCATCAAACATGCAGTCAAGGTGTATTATTCAGTATCGGAGTCACCTAGTGCAG”, the binding signal was 9880 fluorescence intensity (a.u.).

As to “TGTATTGTTATTTACGATTCCTTTTTTTCCCTTGCAGCTACGGAGTCACCTAGTGCAG”, the binding signal is 8230 fluorescence intensity (a.u.).

For the sequence “ACTGCCGGTCCTCACACACGACACACCTAAACAGATCAACCGGAGTCACCTAGTGCAG”, the binding signal was 8370 fluorescence intensity (a.u.).

For the sequence “CCCACTAAAACCCCACTTACGCGCACAAACAAAGCCGAATCGGAGTCACCTAGTGCAG”, the binding signal was 8770 fluorescence intensity (a.u.).

“GTTCACAAATACTCCAAATCGTTTGGCCCACTTATATTCCCGGAGTCACCTAGTGCAG”: the binding signal was 8740 fluorescence intensity (a.u.).

“GTCTATCTCTGTCTCTCTCTCTCACACAAACACTACGATACGGAGTCACCTAGTGCAG”: the binding signal was 8200 fluorescence intensity (a.u.).

With “TTTGGCCTTGCGGTTTGTTCGTTGATTTGGTTCCACGCATCGGAGTCACCTAGTGCAG”, the binding signal is 13000 fluorescence intensity (a.u.).

Take “CCCCGCAACAGCCGCGATCCATGCCCGCGCGGTGATTTCCCGGAGTCACCTAGTGCAG”: the binding signal was 8050 fluorescence intensity (a.u.).

Turning to “CGTGTCTTCTGTGTTTGATCTATTGTTATTTATCGTTTGTCGGAGTCACCTAGTGCAG”, the binding signal is 14000 fluorescence intensity (a.u.).

On to “CGCCTCGCATCTGTTTGGCTTCCACGCCACTGCTCTGCAACGGAGTCACCTAGTGCAG”, for which the binding signal was 8160 fluorescence intensity (a.u.).

As for “TAATGATCCCATAATTAGCACTGCCAATTCGTACGCTTGCCGGAGTCACCTAGTGCAG”, the binding signal was 8200 fluorescence intensity (a.u.).
